Test results: the supplement of paper PMC10849652
The other results are listed elsewhere or left out.

The chains behind the UniProt entries cited, without tags or fusion partners. Where a name states a change or a piece, a line headed by the entry shows the natural chain unless it says otherwise.
UniProt Q8WV16: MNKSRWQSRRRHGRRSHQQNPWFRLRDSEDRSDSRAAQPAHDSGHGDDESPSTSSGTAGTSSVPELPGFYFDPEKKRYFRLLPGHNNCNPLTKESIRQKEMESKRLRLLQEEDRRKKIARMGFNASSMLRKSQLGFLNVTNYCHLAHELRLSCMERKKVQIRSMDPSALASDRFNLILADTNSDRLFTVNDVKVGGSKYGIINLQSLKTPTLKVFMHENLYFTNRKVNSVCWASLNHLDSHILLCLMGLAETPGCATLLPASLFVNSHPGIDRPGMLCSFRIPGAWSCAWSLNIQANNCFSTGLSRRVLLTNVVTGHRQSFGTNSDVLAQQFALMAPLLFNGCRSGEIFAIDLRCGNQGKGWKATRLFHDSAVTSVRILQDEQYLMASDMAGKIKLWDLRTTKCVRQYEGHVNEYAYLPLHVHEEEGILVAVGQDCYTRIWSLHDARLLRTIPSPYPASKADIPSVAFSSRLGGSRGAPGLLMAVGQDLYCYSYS
UniProt Q7L5Y6, whole entry, looked up: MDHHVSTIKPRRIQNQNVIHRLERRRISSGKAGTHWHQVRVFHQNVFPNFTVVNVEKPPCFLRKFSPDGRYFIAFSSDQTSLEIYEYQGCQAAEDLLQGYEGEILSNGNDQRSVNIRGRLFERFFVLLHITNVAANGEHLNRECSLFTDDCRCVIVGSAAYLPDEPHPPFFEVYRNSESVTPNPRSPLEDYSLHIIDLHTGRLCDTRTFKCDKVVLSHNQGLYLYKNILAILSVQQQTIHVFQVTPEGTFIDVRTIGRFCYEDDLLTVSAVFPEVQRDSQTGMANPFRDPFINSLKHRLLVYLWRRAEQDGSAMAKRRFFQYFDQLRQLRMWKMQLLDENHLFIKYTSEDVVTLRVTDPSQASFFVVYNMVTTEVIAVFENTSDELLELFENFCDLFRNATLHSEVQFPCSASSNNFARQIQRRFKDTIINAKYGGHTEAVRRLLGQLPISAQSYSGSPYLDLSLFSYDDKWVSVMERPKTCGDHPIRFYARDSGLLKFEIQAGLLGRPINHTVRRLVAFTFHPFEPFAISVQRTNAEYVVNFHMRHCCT
UniProt Q8N8Z6: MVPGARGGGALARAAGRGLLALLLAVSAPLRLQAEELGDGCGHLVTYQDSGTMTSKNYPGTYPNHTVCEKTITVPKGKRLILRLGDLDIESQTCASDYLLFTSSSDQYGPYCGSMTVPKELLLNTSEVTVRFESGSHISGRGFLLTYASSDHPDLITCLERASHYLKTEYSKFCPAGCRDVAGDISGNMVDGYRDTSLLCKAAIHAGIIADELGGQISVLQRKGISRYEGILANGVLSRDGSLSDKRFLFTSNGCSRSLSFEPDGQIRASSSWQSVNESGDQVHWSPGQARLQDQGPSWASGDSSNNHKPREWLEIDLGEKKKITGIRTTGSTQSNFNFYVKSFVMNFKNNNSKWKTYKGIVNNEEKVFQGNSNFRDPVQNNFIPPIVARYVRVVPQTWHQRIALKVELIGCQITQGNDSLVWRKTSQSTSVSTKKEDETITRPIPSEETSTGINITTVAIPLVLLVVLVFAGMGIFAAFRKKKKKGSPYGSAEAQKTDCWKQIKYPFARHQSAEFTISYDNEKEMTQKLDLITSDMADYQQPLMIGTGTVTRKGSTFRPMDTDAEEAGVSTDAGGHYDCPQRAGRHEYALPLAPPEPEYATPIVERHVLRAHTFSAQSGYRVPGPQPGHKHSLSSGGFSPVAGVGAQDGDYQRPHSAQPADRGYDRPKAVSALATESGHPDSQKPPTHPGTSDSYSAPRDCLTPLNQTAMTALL
UniProt O94760: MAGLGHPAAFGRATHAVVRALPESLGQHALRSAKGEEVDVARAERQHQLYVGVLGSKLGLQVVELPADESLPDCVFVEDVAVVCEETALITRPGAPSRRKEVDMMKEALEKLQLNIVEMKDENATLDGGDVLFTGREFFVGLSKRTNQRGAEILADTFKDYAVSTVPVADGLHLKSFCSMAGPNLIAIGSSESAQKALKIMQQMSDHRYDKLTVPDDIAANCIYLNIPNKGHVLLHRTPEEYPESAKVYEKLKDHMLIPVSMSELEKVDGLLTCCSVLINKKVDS
UniProt Q8IWE4: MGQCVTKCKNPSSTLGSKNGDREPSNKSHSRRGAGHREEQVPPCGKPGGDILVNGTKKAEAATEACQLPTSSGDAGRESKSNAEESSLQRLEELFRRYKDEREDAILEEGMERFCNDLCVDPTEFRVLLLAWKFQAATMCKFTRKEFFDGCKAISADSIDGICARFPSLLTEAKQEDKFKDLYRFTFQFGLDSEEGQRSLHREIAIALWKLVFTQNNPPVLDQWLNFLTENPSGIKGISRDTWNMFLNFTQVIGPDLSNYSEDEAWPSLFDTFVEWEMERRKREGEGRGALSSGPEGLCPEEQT
UniProt Q8WUY9, whole entry, looked up: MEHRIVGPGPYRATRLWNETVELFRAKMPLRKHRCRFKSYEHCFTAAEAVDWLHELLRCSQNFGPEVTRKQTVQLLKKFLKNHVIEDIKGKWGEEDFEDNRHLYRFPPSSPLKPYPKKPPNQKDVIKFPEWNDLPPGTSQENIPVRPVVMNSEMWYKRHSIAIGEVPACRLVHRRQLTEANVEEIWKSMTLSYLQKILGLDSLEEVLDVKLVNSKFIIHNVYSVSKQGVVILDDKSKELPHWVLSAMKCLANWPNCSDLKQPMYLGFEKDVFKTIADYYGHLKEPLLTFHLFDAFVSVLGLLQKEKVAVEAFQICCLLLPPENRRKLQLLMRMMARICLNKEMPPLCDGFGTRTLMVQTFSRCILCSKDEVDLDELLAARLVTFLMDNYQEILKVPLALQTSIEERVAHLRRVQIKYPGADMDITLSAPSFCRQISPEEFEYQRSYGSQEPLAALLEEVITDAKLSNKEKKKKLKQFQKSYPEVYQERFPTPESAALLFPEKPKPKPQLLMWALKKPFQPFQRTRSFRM
UniProt Q9NX09: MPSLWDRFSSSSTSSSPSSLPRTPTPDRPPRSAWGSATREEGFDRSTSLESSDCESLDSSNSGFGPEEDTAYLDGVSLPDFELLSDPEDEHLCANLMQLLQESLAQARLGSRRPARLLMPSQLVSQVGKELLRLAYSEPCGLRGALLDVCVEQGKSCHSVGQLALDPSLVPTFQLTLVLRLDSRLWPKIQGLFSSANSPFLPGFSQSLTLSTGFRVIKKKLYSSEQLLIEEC
UniProt Q6VVX0: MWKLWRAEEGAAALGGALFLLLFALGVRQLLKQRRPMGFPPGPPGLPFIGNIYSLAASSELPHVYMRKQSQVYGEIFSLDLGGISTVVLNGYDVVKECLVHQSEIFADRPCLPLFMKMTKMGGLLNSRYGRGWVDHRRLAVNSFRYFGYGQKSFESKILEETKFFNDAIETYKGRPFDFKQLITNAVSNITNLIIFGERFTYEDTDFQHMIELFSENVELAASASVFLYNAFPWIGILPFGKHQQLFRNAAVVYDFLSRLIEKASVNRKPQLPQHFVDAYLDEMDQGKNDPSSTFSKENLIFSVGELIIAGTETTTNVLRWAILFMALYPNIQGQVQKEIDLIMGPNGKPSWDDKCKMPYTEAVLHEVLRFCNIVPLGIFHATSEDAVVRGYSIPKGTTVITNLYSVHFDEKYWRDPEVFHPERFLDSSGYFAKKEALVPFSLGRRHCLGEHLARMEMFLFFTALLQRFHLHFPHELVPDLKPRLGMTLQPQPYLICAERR
UniProt Q9H9R9: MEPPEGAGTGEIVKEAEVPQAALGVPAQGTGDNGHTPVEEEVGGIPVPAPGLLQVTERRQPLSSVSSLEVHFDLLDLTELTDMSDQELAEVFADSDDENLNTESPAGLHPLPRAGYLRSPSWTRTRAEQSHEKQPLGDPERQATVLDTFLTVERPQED
UniProt Q6ZUT9: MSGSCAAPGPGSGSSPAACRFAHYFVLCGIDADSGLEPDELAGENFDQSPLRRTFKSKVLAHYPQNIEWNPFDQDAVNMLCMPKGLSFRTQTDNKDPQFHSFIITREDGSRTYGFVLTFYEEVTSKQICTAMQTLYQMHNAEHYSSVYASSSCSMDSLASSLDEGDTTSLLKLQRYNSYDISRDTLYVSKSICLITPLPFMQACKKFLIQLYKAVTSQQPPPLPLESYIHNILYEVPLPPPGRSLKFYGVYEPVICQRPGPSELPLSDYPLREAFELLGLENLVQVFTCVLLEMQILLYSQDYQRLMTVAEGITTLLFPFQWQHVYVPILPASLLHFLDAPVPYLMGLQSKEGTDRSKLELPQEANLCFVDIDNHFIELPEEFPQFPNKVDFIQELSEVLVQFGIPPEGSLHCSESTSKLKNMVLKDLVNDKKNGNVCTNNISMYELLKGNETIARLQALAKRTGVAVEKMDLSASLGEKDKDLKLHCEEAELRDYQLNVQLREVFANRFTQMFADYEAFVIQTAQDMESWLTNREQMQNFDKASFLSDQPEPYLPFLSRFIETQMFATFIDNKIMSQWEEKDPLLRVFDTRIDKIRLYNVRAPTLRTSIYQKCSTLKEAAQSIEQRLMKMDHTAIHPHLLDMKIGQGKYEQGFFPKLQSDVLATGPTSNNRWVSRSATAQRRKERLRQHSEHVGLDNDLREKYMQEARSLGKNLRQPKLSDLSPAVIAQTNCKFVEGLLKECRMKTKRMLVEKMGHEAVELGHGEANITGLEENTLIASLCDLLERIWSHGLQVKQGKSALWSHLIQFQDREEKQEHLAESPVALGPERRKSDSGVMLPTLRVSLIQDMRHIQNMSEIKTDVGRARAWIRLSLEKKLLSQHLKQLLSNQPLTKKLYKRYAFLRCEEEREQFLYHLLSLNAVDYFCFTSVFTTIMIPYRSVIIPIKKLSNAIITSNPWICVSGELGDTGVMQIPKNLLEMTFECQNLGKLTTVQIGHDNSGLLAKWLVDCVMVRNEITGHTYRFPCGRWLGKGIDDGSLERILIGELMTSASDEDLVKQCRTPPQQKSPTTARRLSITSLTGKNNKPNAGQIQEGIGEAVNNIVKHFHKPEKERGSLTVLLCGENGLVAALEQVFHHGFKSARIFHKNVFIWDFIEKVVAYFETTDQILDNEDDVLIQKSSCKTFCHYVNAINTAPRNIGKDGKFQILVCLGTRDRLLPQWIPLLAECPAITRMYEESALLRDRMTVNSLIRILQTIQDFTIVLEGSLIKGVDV
UniProt Q96QD5: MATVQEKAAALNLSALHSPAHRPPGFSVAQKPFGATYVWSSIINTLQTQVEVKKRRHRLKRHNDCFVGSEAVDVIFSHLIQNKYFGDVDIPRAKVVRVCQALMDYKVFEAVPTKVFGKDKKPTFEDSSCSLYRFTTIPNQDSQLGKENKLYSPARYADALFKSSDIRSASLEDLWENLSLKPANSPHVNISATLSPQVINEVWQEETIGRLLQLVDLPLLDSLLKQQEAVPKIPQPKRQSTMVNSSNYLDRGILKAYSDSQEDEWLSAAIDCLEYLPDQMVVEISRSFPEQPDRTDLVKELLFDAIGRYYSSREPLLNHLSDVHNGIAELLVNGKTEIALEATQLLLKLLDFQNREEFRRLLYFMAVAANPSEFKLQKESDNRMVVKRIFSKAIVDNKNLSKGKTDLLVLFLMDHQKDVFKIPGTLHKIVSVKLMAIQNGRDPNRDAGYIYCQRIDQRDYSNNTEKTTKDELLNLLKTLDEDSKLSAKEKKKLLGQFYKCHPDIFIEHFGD
UniProt Q9NQI0, whole entry, looked up: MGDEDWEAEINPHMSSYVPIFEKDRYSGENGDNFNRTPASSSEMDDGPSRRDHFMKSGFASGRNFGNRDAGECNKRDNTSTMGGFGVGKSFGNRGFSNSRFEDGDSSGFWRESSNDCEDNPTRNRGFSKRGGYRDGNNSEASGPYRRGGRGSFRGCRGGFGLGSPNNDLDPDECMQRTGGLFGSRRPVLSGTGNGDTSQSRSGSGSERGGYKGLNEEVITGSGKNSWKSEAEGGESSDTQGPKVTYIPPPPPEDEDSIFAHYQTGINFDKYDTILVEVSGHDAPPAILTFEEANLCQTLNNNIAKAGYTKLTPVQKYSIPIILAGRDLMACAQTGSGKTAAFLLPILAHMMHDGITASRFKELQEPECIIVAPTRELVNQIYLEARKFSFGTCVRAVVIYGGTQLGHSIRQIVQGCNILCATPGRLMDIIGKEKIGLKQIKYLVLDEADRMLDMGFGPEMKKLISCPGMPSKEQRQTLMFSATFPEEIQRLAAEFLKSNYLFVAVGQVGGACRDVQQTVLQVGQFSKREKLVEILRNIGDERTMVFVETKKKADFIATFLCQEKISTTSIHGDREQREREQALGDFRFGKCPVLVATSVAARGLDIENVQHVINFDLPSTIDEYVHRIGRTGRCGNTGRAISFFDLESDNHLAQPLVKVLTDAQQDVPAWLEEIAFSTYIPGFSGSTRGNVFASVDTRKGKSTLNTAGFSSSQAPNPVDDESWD
UniProt Q9BWK5: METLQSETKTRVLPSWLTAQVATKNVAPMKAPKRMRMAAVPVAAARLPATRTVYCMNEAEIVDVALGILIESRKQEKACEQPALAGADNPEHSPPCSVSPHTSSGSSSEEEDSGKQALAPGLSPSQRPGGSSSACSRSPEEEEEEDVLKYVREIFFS

How the values were obtained:
Experiment in all cases: log2 fold change, soluble protein after heating vs DMSO (PISA); higher = thermal stabilisation; K562 lysate, 10 uM; active = over 0.2 and 3.5 SD of the protein, either way, in both replicates (recomputed)
[1] = compound: O=C1NC(=O)C(c2cnc3ccccn23)=C1c1cn2c3c(cc(F)cc13)CN(C(=O)N1CCCCC1)CC2
In short: (§1)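 Quantification was by TMTpro 16plex LC-MS/MS with equalised channel sums, applied to the supernatant after 21,000xg for 90 min. Samples were crude K562 extract at 1 mg/mL protein in PBS pH 7.4 with 1 mM MgCl2, treated with 10 μM compound for 30 min, heated for 3 min across 48°C-58°C, pooled and brought to 0.5% NP-40 at 4°C. Values are log-two fold changes in thermal stability relative to solvent controls, from duplicates.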

entospletinib = compound: c1cn2cc(-c3ccc4cn[nH]c4c3)nc(Nc3ccc(N4CCOCC4)cc3)c2n1 [entospletinib]
In short: as §1

vorinostat = compound: O=C(CCCCCCC(=O)Nc1ccccc1)NO [vorinostat]
In short: as §1

silmitasertib = compound: O=C(O)c1ccc2c(c1)nc(Nc1cccc(Cl)c1)c1ccncc12 [silmitasertib]
In short: as §1

[2] = compound: NCC(=O)Nc1ccc(-n2nc(C(F)(F)F)cc2-c2ccc3c(ccc4ccccc43)c2)cc1
In short: as §1

DCAF4 (UniProt Q8WV16) was tested, and the log2 fold change [1] was inactive: 0.033 and the log2 fold change (entospletinib) was inactive: -0.087.
For DET1 isoform 2 (UniProt Q7L5Y6), the log2 fold change (vorinostat) was inactive: 0.299, the log2 fold change (silmitasertib) was inactive: 0.107 and the log2 fold change [1] was inactive: 0.009.
With DCBLD1 (UniProt Q8N8Z6) the log2 fold change (entospletinib) was inactive: -0.041.
In the case of DDAH1 (UniProt O94760), the log2 fold change [2] is reported as inactive: -0.076, the log2 fold change (vorinostat) is reported as inactive: 0.07 and the log2 fold change (silmitasertib) is reported as inactive: -0.035. The log2 fold change [1] was inactive: 0.017 and the log2 fold change (entospletinib) was inactive: -0.014.
For DCUN1D3 (UniProt Q8IWE4), the log2 fold change (entospletinib) was inactive: 0.106.
In the case of DDIT3 isoform 2 (UniProt P35638), the log2 fold change [2] is reported as inactive: 0.05, the log2 fold change [1] is reported as inactive: 0.005 and the log2 fold change (entospletinib) is reported as inactive: 0.099.
For DEPDC1B (UniProt Q8WUY9), the log2 fold change [2] was inactive: 0.109 and the log2 fold change (entospletinib) was inactive: 0.225.
With DCAF5 (UniProt Q96JK2) the log2 fold change [2] was inactive: 0 and the log2 fold change [1] was inactive: -0.078.
In the case of CYP4V2 (UniProt Q6ZWL3), the log2 fold change (vorinostat) is reported as inactive: 0.055, the log2 fold change (silmitasertib) is reported as inactive: -0.038 and the log2 fold change [1] is reported as inactive: 0.034.
With DDIT4 (UniProt Q9NX09) the log2 fold change [2] was inactive: 0.018, the log2 fold change [1] was inactive: 0.041 and the log2 fold change (entospletinib) was inactive: -0.038.
In the case of CYP2R1 (UniProt Q6VVX0), the log2 fold change [2] is reported as inactive: -0.017, the log2 fold change (vorinostat) is reported as inactive: 0.085 and the log2 fold change (silmitasertib) is reported as inactive: -0.029. The log2 fold change (entospletinib) was inactive: 0.021.
For DDX19A isoform 2 (UniProt Q9NUU7), the log2 fold change [1] was inactive: 0.189.
In the case of DBNDD1 isoform 3 (UniProt Q9H9R9), the log2 fold change (vorinostat) is reported as inactive: -0.005, the log2 fold change (silmitasertib) is reported as inactive: -0.103 and the log2 fold change [1] is reported as inactive: 0.095. The log2 fold change (entospletinib) was inactive: 0.305.
DDHD2 (UniProt O94830) was tested, and the log2 fold change [2] was inactive: 0.014, the log2 fold change (vorinostat) was inactive: -0.054 and the log2 fold change (silmitasertib) was inactive: 0.031. The log2 fold change [1] was inactive: 0.019 and the log2 fold change (entospletinib) was inactive: -0.014.
In the case of DENND5B isoform 2 (UniProt Q6ZUT9), the log2 fold change (vorinostat) is reported as inactive: 0.043 and the log2 fold change (silmitasertib) is reported as inactive: 0.093.
In the case of DEPDC7 (UniProt Q96QD5), the log2 fold change (entospletinib) is reported as inactive: 0.052.
With DDX4 (UniProt Q9NQI0) the log2 fold change [2] was inactive: 0.019, the log2 fold change (vorinostat) was inactive: -0.213 and the log2 fold change (silmitasertib) was inactive: 0.101. For the same target, the log2 fold change (entospletinib) was inactive: 0.011.
DDX51 (UniProt Q8N8A6) was tested, and the log2 fold change (vorinostat) was inactive: -0.161, the log2 fold change (silmitasertib) was inactive: 0.045 and the log2 fold change [1] was inactive: 0.049.
DDHD1 (UniProt Q8NEL9) was tested, and the log2 fold change [2] was inactive: -0.127, the log2 fold change (vorinostat) was inactive: -0.029 and the log2 fold change (silmitasertib) was inactive: 0.026. The log2 fold change [1] was inactive: 0.035 and the log2 fold change (entospletinib) was inactive: -0.025.
In the case of CYREN isoform 4 (UniProt Q9BWK5), the log2 fold change (vorinostat) is reported as inactive: -0.006, the log2 fold change (silmitasertib) is reported as inactive: -0.033 and the log2 fold change [1] is reported as inactive: -0.053.
In the case of DCUN1D1 (UniProt C9JVE2), the log2 fold change (vorinostat) is reported as inactive: 0.125, the log2 fold change (silmitasertib) is reported as inactive: -0.092 and the log2 fold change [1] is reported as inactive: 0.371. The log2 fold change (entospletinib) was inactive: 0.129.
